From the supplement of paper PMC7666118
Some of the results follow.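 How the source made its calls: active = dose-dependent thermal stabilisation significant by F-test of dose-response against flat model at 10% FDR; inactive = not significant.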

Protein sequences, listed by entry. Tags and fused reporters are not part of them. Lines headed by an entry give the natural chain unless they say otherwise; changes in a name come on top.
UniProt Q07866: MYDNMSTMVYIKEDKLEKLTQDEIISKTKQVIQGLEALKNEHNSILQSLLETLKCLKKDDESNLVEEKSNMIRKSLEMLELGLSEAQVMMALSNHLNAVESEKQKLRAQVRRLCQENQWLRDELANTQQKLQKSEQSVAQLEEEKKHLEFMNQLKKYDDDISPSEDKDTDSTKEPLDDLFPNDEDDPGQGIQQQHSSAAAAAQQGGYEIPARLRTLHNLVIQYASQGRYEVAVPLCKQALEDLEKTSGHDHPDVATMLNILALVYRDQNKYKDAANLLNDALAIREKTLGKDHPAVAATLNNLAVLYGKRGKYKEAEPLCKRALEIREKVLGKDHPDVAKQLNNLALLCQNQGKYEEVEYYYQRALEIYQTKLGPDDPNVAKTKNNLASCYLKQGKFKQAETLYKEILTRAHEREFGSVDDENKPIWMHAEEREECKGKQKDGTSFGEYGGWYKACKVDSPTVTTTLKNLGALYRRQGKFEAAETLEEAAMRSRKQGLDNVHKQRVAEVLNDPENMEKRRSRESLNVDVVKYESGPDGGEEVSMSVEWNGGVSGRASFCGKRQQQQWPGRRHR
UniProt P32019: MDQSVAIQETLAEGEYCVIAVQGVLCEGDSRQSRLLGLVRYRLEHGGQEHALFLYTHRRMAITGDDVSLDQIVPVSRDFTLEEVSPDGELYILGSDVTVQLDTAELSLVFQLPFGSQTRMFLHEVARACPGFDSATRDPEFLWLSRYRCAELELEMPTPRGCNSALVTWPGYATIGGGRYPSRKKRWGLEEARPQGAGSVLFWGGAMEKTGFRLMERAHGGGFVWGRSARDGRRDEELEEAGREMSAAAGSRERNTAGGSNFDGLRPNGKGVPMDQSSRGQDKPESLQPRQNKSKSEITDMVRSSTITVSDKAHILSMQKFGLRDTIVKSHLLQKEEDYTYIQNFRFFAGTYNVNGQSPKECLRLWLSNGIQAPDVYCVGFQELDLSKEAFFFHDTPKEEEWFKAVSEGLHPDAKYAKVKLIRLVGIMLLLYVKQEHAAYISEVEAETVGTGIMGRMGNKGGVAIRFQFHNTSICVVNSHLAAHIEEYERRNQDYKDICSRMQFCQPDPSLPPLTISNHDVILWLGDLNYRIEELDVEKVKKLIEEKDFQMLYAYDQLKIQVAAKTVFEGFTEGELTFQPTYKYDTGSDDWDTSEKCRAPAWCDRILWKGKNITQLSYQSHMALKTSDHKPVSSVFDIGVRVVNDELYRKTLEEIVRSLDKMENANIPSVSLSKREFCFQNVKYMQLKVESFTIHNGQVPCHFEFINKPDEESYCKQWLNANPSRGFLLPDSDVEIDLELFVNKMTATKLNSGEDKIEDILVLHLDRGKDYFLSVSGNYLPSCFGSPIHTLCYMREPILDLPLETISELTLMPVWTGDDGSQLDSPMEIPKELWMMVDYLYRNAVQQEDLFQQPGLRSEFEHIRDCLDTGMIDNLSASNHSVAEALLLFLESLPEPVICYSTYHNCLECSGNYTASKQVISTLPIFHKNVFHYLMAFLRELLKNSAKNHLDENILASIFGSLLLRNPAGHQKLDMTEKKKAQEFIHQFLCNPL
UniProt P04264: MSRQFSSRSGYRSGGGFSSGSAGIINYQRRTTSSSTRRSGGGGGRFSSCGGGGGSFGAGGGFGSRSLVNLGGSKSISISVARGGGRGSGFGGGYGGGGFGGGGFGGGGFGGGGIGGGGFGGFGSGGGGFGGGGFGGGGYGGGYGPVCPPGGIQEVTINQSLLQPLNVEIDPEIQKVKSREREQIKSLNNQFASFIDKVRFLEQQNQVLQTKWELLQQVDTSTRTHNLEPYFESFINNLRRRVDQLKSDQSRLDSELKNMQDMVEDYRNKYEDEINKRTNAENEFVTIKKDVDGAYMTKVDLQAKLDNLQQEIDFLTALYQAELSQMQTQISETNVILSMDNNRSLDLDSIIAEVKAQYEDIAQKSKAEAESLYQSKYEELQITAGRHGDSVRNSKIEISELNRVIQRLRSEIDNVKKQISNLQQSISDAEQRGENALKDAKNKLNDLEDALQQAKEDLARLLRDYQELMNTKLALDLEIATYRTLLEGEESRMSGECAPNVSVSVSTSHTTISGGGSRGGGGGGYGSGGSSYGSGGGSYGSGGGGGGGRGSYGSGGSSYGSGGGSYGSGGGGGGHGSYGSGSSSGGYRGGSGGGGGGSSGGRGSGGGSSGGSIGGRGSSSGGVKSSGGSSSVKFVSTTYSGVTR
UniProt Q14145, whole entry: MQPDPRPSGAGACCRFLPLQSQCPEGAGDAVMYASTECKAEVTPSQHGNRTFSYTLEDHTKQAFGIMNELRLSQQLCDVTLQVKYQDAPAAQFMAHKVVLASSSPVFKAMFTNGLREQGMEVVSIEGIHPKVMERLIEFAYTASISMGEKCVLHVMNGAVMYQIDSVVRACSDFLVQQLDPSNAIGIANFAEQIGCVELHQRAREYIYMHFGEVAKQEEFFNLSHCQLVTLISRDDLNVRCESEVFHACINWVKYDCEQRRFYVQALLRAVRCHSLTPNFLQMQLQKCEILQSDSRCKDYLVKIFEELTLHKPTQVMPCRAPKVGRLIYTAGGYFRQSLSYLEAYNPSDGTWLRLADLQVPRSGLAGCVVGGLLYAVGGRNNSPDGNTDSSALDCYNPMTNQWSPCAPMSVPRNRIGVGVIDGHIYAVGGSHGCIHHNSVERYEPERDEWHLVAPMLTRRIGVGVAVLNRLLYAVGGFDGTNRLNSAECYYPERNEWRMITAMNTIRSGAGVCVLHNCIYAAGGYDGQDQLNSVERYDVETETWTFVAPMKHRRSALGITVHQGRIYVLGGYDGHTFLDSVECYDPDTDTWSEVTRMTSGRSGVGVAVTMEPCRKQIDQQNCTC
UniProt Q58FG1, whole entry: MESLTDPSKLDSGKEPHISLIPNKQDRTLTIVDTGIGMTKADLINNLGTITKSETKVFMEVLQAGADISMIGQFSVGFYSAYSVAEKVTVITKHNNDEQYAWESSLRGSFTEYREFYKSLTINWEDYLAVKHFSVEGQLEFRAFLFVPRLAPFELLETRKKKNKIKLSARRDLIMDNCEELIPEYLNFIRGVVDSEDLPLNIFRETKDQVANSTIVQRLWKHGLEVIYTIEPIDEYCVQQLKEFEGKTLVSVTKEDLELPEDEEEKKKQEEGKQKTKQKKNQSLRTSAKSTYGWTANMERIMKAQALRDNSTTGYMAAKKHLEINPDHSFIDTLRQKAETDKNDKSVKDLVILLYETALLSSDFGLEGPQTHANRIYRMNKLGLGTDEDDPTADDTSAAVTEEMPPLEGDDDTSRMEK
UniProt Q14847: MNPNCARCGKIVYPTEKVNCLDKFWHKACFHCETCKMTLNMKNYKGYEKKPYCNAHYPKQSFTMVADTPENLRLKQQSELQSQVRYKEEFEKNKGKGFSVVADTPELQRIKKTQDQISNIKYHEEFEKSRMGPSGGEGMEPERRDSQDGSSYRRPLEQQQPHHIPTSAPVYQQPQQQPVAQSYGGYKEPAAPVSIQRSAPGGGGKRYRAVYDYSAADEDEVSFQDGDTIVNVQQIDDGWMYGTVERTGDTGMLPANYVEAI
UniProt Q9Y6K9, whole entry: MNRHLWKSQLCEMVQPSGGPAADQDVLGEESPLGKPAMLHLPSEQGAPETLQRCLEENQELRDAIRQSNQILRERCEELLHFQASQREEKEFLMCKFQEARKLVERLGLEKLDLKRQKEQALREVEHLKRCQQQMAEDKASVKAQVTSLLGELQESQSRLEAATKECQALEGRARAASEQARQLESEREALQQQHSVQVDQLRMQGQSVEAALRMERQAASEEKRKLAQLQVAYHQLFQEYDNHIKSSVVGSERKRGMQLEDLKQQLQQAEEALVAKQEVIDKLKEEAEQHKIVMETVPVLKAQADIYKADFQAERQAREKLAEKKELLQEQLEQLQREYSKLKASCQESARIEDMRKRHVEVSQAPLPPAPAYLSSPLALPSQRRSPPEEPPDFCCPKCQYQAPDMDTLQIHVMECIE
UniProt Q2M2Z5: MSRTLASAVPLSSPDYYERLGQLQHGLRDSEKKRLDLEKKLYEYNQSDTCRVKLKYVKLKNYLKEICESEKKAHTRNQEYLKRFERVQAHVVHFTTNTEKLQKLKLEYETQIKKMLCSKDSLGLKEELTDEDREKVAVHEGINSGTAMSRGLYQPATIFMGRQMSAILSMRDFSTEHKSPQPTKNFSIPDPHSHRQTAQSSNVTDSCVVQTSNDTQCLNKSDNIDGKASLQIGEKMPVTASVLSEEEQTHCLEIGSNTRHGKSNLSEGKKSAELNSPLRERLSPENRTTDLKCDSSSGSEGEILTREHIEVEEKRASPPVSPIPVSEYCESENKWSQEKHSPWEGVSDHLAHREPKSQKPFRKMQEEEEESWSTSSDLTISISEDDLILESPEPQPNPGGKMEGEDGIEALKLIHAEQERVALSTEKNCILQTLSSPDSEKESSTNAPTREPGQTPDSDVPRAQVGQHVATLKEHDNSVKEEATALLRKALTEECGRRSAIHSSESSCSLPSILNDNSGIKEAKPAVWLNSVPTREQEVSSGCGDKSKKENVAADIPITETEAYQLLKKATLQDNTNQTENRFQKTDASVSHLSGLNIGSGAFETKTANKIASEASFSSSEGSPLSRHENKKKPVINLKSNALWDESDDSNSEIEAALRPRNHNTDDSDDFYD
UniProt Q9Y547: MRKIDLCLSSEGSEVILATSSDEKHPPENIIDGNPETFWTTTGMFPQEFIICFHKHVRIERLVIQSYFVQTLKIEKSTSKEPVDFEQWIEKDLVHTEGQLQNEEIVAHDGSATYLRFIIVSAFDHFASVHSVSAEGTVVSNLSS
UniProt Q6ZSZ5: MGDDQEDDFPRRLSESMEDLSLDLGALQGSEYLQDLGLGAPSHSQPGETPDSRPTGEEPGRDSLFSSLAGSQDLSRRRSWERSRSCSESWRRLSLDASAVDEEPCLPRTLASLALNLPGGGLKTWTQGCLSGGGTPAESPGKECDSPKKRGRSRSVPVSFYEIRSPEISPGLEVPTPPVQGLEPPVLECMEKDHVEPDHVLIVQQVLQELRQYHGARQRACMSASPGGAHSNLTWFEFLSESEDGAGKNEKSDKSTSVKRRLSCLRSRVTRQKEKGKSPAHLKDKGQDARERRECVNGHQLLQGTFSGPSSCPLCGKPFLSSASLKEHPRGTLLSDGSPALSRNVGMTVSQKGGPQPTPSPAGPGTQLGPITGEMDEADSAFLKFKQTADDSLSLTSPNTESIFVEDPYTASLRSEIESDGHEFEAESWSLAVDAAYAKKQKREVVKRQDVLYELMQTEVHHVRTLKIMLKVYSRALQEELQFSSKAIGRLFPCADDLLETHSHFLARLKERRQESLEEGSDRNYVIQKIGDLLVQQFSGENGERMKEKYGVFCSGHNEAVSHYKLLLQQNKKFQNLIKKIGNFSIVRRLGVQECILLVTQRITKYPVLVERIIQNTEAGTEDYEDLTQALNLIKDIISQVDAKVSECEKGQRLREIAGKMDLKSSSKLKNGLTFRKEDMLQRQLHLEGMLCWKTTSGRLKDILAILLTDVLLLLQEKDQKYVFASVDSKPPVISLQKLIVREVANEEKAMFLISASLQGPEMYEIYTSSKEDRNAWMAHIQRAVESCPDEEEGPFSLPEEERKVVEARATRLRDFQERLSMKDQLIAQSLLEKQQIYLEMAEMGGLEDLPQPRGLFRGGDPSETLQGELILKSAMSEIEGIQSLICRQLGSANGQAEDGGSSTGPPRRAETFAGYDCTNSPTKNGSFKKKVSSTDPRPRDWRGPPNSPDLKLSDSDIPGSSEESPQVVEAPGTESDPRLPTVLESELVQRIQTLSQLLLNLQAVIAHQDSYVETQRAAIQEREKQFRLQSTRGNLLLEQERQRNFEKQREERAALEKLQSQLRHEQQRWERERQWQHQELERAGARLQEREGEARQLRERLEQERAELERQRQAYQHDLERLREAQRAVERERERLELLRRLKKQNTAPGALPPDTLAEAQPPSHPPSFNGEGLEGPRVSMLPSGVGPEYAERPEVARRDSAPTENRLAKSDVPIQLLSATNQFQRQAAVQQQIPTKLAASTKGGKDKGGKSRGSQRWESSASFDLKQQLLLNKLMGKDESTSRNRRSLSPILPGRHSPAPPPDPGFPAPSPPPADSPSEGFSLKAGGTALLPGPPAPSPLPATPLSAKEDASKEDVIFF
UniProt Q9C0E8: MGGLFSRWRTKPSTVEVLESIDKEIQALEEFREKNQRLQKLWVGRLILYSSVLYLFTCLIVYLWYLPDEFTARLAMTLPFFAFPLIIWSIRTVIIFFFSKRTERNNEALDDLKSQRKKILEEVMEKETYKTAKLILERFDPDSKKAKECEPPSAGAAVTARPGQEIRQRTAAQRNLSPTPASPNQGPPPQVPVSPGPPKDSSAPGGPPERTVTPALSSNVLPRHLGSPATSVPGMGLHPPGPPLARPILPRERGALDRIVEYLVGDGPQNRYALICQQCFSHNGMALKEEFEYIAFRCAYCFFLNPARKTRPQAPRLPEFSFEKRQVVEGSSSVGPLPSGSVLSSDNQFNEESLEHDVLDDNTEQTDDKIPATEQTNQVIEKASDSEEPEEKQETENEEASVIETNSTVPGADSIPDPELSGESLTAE

What follows are targets tested with Nc1nc2c(ncn2[C@@H]2O[C@H](COP(=O)(O)OP(=O)(O)OP(=O)(O)O)[C@@H](O)[C@H]2O)c(=O)[nH]1 (assay: dose-dependent thermal stabilisation call (2D-TPP, DLPTP, 10% FDR) (binary (1 = stabilised)); higher = stabilised by the compound). Settings: system: Jurkat gel-filtered lysate; concentration range 1-500 µM.
Protocol: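 2D thermal proteome profiling in gel-filtered Jurkat E6.1 lysate (2 mg/ml) treated with NaGTP (0, 1, 10, 100, 500 uM) for 10 min at room temperature, then heated 3 min at one of 12 temperatures (42-63.9 C). Soluble protein was quantified by TMT10 MS. The value is the DLPTP call of the paper: dose-dependent thermal stabilisation over all temperatures at 10% FDR (F-test of a dose-response against a flat model); one experiment, one call per tested protein.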

dose-dependent thermal stabilisation call, active:
KLC1 (UniProt Q07866) 1
INTS10 (UniProt Q9NVR2) 1
HRAS (UniProt P01112) 1
KIF2A (UniProt O00139) 1
ILF3 (UniProt Q12906) 1
INPP5B (UniProt P32019) 1

dose-dependent thermal stabilisation call, inactive:
INTS3 (UniProt Q68E01) 0
LIN7C (UniProt Q9NUP9) 0
KRT1 (UniProt P04264) 0
LCMT1 (UniProt Q9UIC8) 0
HPS4 (UniProt Q9NQG7) 0
INPP4A (UniProt Q96PE3) 0
HSPA4 (UniProt P34932) 0
KNSTRN (UniProt Q9Y448) 0
KIF23 (UniProt Q02241) 0
KEAP1 (UniProt Q14145) 0
HSP90AA4P (UniProt Q58FG1) 0
KIAA1524 (UniProt Q8TCG1) 0
KATNA1 (UniProt O75449) 0
LASP1 (UniProt Q14847) 0
IKBKG (UniProt Q9Y6K9) 0
HSPD1 (UniProt P10809) 0
INCENP (UniProt Q9NQS7) 0
LPP (UniProt Q93052) 0
KIZ (UniProt Q2M2Z5) 0
ISG15 (UniProt P05161) 0
HSPB11 (UniProt Q9Y547) 0
KARS (UniProt Q15046) 0
JUNB (UniProt P17275) 0
LHPP (UniProt Q9H008) 0
HSF1 (UniProt Q00613) 0
I3L1I5 (UniProt Q6ZSZ5) 0
LACTB2 (UniProt Q53H82) 0
HSCB (UniProt Q8IWL3) 0
LNP (UniProt Q9C0E8) 0
KMT2D (UniProt O14686) 0
KYAT1 (UniProt Q16773) 0
LIN37 (UniProt Q96GY3) 0
IKZF1 (UniProt Q13422) 0
KHK (UniProt P50053) 0

A stretch taken from the entries so far:
dose-dependent thermal stabilisation call, inactive:
IKBKG (UniProt Q9Y6K9) 0
HSPD1 (UniProt P10809) 0
